According to patent US20250032476A1, “ALPHA-2A ADRENERGIC RECEPTOR MODULATORS AND USES THEREOF” (The Regents of the University of California, priority 2021, published 2025):
For at least one compound, name, drawing or mass did not settle the structure.

Sequences of proteins named here, by UniProt entry; tags and fusion partners are left off.
UniProt P08913, whole entry: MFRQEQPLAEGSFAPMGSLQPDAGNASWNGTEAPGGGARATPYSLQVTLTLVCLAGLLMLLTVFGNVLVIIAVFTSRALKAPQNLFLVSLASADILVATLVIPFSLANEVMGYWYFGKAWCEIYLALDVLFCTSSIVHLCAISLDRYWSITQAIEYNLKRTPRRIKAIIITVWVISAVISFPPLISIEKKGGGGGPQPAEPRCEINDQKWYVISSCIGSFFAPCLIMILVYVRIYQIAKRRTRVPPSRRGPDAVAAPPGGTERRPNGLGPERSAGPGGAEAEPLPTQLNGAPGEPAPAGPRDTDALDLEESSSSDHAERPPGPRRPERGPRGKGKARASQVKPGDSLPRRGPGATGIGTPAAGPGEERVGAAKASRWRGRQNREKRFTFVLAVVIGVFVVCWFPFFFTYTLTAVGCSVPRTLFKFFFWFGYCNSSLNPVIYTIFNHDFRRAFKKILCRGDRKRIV

Target: ALPHA-2A ADRENERGIC RECEPTOR (Homo sapiens (Human), UniProt P08913)
Assay: Gi recruitment (G protein)
Type: cell-based
Details: Table 6, result in words

SMILES | functional classification (agonist / weak agonist)
c1cc(Nc2ccncc2)c2sccc2c1 [Compound 4914] | agonist
COc1ccc2c(Nc3ccncc3)cccc2c1 [PS73] | agonist
